Source: the supplement of paper PMC12823440, “Inhibitors supercharge kinase turnover through native proteolytic circuits” (Nature, 2025)
Counter-ions that a name gives are not always drawn. Some of the results follow. The calls rarely recur for the same compound in another form.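 Kinases, fused to nanoluciferase, were expressed in K562 cells; luminescence was measured every 4 h from 2 to 18 h as percent of control (DMSO = 100%, positive control = 0%). A time point is decreased if signal falls significantly (2 sigma). Hits were called by the authors by a rule that is not shown; the count of time points alone does not decide it.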

Sequences of proteins named here, by UniProt entry; tags and fusion partners are left off. A change or cut given only in a name is not applied to a line headed by its entry.
UniProt P51813: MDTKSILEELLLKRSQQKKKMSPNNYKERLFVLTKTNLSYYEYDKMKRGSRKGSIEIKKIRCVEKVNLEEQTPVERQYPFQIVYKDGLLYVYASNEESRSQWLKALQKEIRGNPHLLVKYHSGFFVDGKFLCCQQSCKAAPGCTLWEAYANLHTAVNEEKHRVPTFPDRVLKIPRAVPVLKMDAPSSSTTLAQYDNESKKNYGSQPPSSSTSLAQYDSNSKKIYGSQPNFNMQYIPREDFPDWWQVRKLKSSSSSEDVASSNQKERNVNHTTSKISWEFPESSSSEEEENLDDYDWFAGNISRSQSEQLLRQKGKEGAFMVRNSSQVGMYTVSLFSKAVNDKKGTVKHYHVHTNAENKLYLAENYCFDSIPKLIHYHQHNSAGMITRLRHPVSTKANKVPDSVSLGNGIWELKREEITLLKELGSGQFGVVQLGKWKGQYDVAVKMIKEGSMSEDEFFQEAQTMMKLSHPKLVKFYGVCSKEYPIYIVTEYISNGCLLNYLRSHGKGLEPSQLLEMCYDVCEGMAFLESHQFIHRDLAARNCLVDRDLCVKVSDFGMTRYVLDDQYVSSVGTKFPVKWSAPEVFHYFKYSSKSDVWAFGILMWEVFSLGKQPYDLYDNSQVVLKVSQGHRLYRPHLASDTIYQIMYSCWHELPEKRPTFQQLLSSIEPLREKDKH
UniProt P15056, whole entry, looked up: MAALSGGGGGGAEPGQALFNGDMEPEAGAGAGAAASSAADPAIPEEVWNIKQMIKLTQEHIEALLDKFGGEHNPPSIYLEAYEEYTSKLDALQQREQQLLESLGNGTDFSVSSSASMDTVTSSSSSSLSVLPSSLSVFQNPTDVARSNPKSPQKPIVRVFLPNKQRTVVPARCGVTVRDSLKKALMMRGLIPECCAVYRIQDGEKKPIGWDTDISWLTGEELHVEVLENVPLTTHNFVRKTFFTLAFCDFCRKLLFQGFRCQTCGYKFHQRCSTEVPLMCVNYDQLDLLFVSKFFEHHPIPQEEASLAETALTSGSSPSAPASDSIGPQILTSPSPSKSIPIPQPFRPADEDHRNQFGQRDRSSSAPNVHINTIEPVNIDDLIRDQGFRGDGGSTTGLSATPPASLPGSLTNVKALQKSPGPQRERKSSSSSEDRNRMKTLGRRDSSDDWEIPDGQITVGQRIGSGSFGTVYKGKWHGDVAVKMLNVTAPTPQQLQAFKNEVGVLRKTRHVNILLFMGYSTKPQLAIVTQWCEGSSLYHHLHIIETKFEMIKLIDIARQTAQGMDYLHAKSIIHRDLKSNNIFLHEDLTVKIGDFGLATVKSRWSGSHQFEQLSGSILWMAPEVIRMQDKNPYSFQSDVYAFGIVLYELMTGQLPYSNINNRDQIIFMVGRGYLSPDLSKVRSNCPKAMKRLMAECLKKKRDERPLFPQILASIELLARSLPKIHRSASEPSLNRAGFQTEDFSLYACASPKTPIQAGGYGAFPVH

These molecules were tested against BMX (UniProt P51813) (assay: kinase-Nluc reporter destabilization hit call (1 = scored as downregulated) (binary); higher = compound decreases kinase abundance). Conditions: K562; 2-18 h.

kinase-Nluc reporter destabilization hit call, inactive:
Cc1nc(NC(=O)NCCc2nnn(CCF)n2)sc1-c1ccc(S(C)(=O)=O)c(F)c1 (10 µM) 0, CCN(C)C(=O)c1ccc2c(C(=Nc3ccc(CN4CCCCC4)cc3)c3ccccc3)c(O)[nH]c2c1 (2.5 µM) 0, CC(=O)Nc1nc(C)c(-c2nc(N3CCCC(O)C3)no2)s1 (configuration not stated) (10 µM) 0, COc1c(O)cc2oc3cc(O)c(CC=C(C)C)c(O)c3c(=O)c2c1CCC(C)(C)O [Garcinone D] (2.5 µM) 0

Each molecule was assayed against BRAF (UniProt P15056) in the same assay as above. Conditions: K562; 2-18 h.

kinase-Nluc reporter destabilization hit call, inactive:
O=S(=O)(c1cccc2cnccc12)N1CCNCC1 (10 µM) 0, COc1cc(C(C)=O)cc(OC)c1O [Acetosyringone] (10 µM) 0, CCOc1c([C@H](C)n2nc(C)c3c(N)ncnc32)cc(Cl)c(F)c1[C@@H]1CNC(=O)C1 [Parsaclisib (hydrochloride)] (10 µM) 0, CC[C@H](C)[C@H](NC(=O)[C@H](CCC(=O)O)NC(=O)[C@H](CCCN=C(N)N)NC(=O)[C@H](CCCN=C(N)N)NC(=O)[C@@H](N)CCCCN)C(=O)N[C@@H](CC(C)C)C(=O)N[C@@H](CO)C(=O)N[C@@H](CCCN=C(N)N)C(=O)N[C@@H](CCCN=C(N)N)C(=O)N1CCC[C@H]1C(=O)N[C@@H](CO)C(=O)N[C@@H](Cc1ccc(O)cc1)C(=O)N[C@@H](CCCN=C(N)N)C(=O)O [CREBtide] (10 µM) 0, O=C(O)CCc1ccc(NCc2cccc(Oc3ccccc3)c2)cc1 (10 µM) 0, O[C@H]1CC[C@H](Nc2ncc3nc(Nc4c(F)cc(F)cc4F)n([C@H]4CCOC4)c3n2)CC1 [Tanzisertib] (10 µM) 0, Oc1ccccc1C(=S)N1CCCC1 (10 µM) 0, CC[C@@H]1C(=O)N(C)c2cnc(Nc3ccc(C(=O)N[C@H]4CC[C@H](N5CCN(CC6CC6)CC5)CC4)cc3OC)nc2N1C(C)C [Volasertib] (2.5 µM) 0, C[C@@H]1O[C@@H](OC[C@H]2O[C@@H](Oc3cc(O)c4c(c3)O[C@H](c3ccc(O)cc3)CC4=O)[C@H](O)[C@@H](O)[C@@H]2O)[C@H](O)[C@H](O)[C@H]1O [Narirutin] (10 µM) 0, CCc1ccc(C(=O)COc2ccc(CC3SC(=O)NC3=O)cc2)nc1 (configuration not stated) (10 µM) 0, Cc1ccc(-c2ccc3c(ccc4sc5c(c43)NC[C@@H](C)NC5=O)n2)cn1 (10 µM) 0, CC[C@H](Nc1ncnc2[nH]cnc12)c1oc2ccccc2c(=O)c1-c1cccc(F)c1 [Tenalisib] (10 µM) 0, CCCC(=O)Nc1nc2c(ncn2[C@@H]2O[C@@H]3COP(=O)(O)O[C@H]3[C@H]2OC(=O)CCC)c(=O)[nH]1 [Dibutyryl-cGMP (sodium)] (10 µM) 0, CC(C)c1cnn2c(NCc3ccccc3-n3cccn3)nc(OC3CCCNC3)nc12 (configuration not stated) (2.5 µM) 0, OCCN(CCO)c1ccc(C(c2ccc(Cl)cc2)c2ccc(N(CCO)CCO)cc2)cc1 (10 µM) 0, CCCCNC(=N)NC(=N)N [Buformin (hydrochloride)] (2.5 µM) 0, Fc1c(Br)cccc1Nc1ncnc2cc3c(cc12)OCCO3 (2.5 µM) 0, Cc1cc(Nc2nc(N[C@@H](C)c3ncc(F)cn3)ncc2Cl)[nH]n1 (10 µM) 0, Cc1cc(Nc2cc(CN3CCOCC3)c3nc(C)c(Cc4ccc(Cl)cc4F)n3n2)n[nH]1 [Gandotinib] (2.5 µM) 0, COc1cc(N2CCC(N(C)C)CC2)ccc1Nc1ncc(Cl)c(Nc2ccccc2P(C)(C)=O)n1 (2.5 µM) 0, Nc1[nH]c(=O)nc2c1ncn2[C@@H]1O[C@H](CO)[C@@H](O)[C@H]1O [Crotonoside] (10 µM) 0, Cn1cc(-c2ccc(F)c(C(F)(F)F)c2)nc1C1CCN(c2ncnc3[nH]ncc23)CC1 (10 µM) 0, CCOc1ccccc1C=C1C(=O)Nc2ccccc21 (10 µM) 0, CC(C)(C)C(=O)N1N=CC[C@H]1c1ccccc1 (10 µM) 0, COc1ccc(CCNc2ncc3c(=O)n(-c4cccc(F)c4)c(=O)[nH]c3n2)cc1OC (2 µM) 0, Cc1ccc(-c2nn(C(C)(C)CNC(=O)c3ccncc3)c3ncnc(N)c23)cc1 (2.5 µM) 0, CNC(=O)c1ccc(-c2cnc3cnc(-c4ccccc4)cn23)cc1 (10 µM) 0, CCn1nc(C2CCN(C(=O)CCO)CC2)nc1-c1cnc(N)c(-c2nnc(C(C)(C)C)o2)n1 (10 µM) 0, CCCCCCCC/C=C\CCCCCCCC(=O)NCC(=O)O [N-Oleoyl glycine] (10 µM) 0, CC1(COc2ccc3c(c2)ncn3-c2ccc3cccc(N4CCC(N)CC4)c3n2)COC1 [Crenolanib] (2.5 µM) 0, CC(CCc1ccccn1)(CCc1ccccn1)C(=O)c1ccccc1 (10 µM) 0, COc1cc(-c2cc(-c3cc(OC)c(OC)c(OC)c3)cc(C(F)P(=O)(OCOC(=O)C(C)(C)C)OCOC(=O)C(C)(C)C)c2)cc(OC)c1OC (configuration not stated) [Stafia-1-dipivaloyloxymethyl ester] (2.5 µM) 0, CC1(N)CCN(c2cnc3c(-c4cccc(Cl)c4Cl)[nH]nc3n2)CC1 (2.5 µM) 0, CC(C)(O)[C@@H]1CC[C@](C)([C@H]2[C@@H](O)C[C@@]3(C)[C@@H]4C[C@H](O[C@@H]5O[C@H](CO)[C@@H](O)[C@H](O)[C@H]5O)[C@H]5C(C)(C)[C@@H](O[C@@H]6OC[C@@H](O)[C@H](O)[C@H]6O[C@@H]6O[C@H](CO)[C@@H](O)[C@H](O)[C@H]6O)CC[C@@]56C[C@@]46CC[C@]23C)O1 [Astragaloside VI] (10 µM) 0, Cc1nc(NC(=O)NCCc2nnn(CCF)n2)sc1-c1ccc(S(C)(=O)=O)c(F)c1 (10 µM) 0, CCN(C)C(=O)c1ccc2c(C(=Nc3ccc(CN4CCCCC4)cc3)c3ccccc3)c(O)[nH]c2c1 (2.5 µM) 0, CC(=O)Nc1nc(C)c(-c2nc(N3CCCC(O)C3)no2)s1 (configuration not stated) (10 µM) 0, COc1c(O)cc2oc3cc(O)c(CC=C(C)C)c(O)c3c(=O)c2c1CCC(C)(C)O [Garcinone D] (2.5 µM) 0
